{"source": "patent US20130071854A1", "about": "“METHODS FOR THE IDENTIFICATION AND CHARACTERIZATION OF HDAC INTERACTING COMPOUNDS” (priority 2009, published 2013)", "key": {"MIER1": {"test_system": "MIER1", "test": "Chemoproteomic binding profiling, K562 cell extract, SAHA/ITF2357 probe matrix (Kd app), ELSA (ELM-SANT) domain protein", "parameters": "species or system human", "conditions": "ELSA (ELM-SANT) domain proteins"}, "EHMT2": {"test_system": "EHMT2", "test": "Chemoproteomic binding profiling, K562 cell extract, SAHA/ITF2357 probe matrix (Kd app), ELSA (ELM-SANT) domain proteins group", "parameters": "species or system human", "conditions": "protein EHMT2"}, "CoREST complex": {"test_system": "CoREST complex", "test": "Chemoproteomic binding profiling, K562 cell extract, SAHA/ITF2357 probe matrix (Kd app)", "parameters": "species or system human"}, "RERE": {"test_system": "RERE", "test": "Chemoproteomic binding profiling, K562 cell extract, SAHA/ITF2357 probe matrix (Kd app), ELSA (ELM-SANT) domain protein", "parameters": "species or system human", "conditions": "ELSA (ELM-SANT) domain proteins"}, "NuRD complex": {"test_system": "NuRD complex", "test": "Chemoproteomic binding profiling, K562 cell extract, SAHA/ITF2357 probe matrix (Kd app)", "parameters": "species or system human"}, "MIER3": {"test_system": "MIER3", "test": "Chemoproteomic binding profiling, K562 cell extract, SAHA/ITF2357 probe matrix (Kd app), ELSA (ELM-SANT) domain protein", "parameters": "species or system human", "conditions": "ELSA (ELM-SANT) domain proteins"}, "[1]": {"test_system": "histone acetylation, K562 cells", "test": "Mapping of histone acetylation by LC-MS/MS of K562 cells treated with HDACi", "format": "cell-based, human", "conditions": "K562 cells treated 6 hours, isobaric tagging and MS/MS"}, "acetylated tubulin": {"test_system": "acetylated tubulin", "test": "Cell-based tubulin acetylation assay (immunofluorescence, western blotting)", "parameters": "species or system human", "conditions": "K562 and HeLa cells"}, "[2]": {"test_system": "acetylated histones H3 and H4", "test": "Cell-based histone acetylation assay (immunofluorescence, western blotting)", "parameters": "species or system human", "conditions": "K562 and HeLa cells"}}, "note": "Read-outs that look alike come from different tables or passages of the source. At least one structure is not confirmed: it was looked up by name or label, or the drawing left a doubt.", "data": [{"smiles": "CCC(=O)CCCCC[C@@H]1NC(=O)[C@H]2CCCCN2C(=O)[C@H]([C@@H](C)CC)NC(=O)[C@H](Cc2cn(OC)c3ccccc23)NC1=O", "note": "[apicidin]", "values": [{"measurement": "Kd", "setting": "MIER1", "result": 20, "unit": "nM"}, {"measurement": "Kd", "setting": "EHMT2", "result": 20, "unit": "nM"}, {"measurement": "Kd", "setting": "CoREST complex; read-out: Kd^app GSE1", "result": 10, "unit": "nM"}, {"measurement": "Kd", "setting": "CoREST complex; read-out: Kd^app HMG20A", "result": 10, "unit": "nM"}, {"measurement": "Kd", "setting": "CoREST complex; read-out: Kd^app HMG20B", "result": 10, "unit": "nM"}, {"measurement": "Kd", "setting": "CoREST complex; read-out: Kd^app PHF21A", "result": 30, "unit": "nM"}, {"measurement": "Kd", "setting": "CoREST complex; read-out: Kd^app RCOR1", "result": 10, "unit": "nM"}, {"measurement": "Kd", "setting": "CoREST complex; read-out: Kd^app RCOR2", "result": 20, "unit": "nM"}, {"measurement": "Kd", "setting": "CoREST complex; read-out: Kd^app RCOR3", "result": 10, "unit": "nM"}, {"measurement": "Kd", "setting": "CoREST complex; read-out: Kd^app ZMYM2", "result": 20, "unit": "nM"}, {"measurement": "Kd", "setting": "RERE", "result": 20, "unit": "nM"}, {"measurement": "Kd", "setting": "NuRD complex; read-out: Kd^app GATAD2A", "result": 30, "unit": "nM"}, {"measurement": "Kd", "setting": "NuRD complex; read-out: Kd^app GATAD2B", "result": 50, "unit": "nM"}, {"measurement": "Kd", "setting": "NuRD complex; read-out: Kd^app MBD2", "result": "> 1000", "unit": "nM"}, {"measurement": "Kd", "setting": "NuRD complex; read-out: Kd^app MBD3", "result": 30, "unit": "nM"}, {"measurement": "Kd", "setting": "NuRD complex; read-out: Kd^app MTA2", "result": 50, "unit": "nM"}, {"measurement": "Kd", "setting": "NuRD complex; read-out: Kd^app MTA3", "result": 30, "unit": "nM"}, {"measurement": "Kd", "setting": "MIER3", "result": 10, "unit": "nM"}]}, {"smiles": "C/C=C1\\NC(=O)[C@H]2CSSCC/C=C/[C@H](CC(=O)N[C@H](C(C)C)C(=O)N2)OC(=O)[C@H](C(C)C)NC1=O", "note": "[romidepsin]", "values": [{"measurement": "abundance of acetylated histone peptides (in words)", "setting": "[1]", "result": "pronounced abundance of hyperacetylated histone peptides"}, {"measurement": "tubulin acetylation (in words)", "setting": "acetylated tubulin", "result": "did not affect tubulin"}, {"measurement": "histone acetylation (in words)", "setting": "[2]", "result": "elicited staining of acetylated histones"}]}]}
